In PMC2890414:
These are yes or no findings as the source states them, for the method shown. Binding seen in cells or lysates may run through a third protein. Some binding calls cover weakened binding; strength is not graded here.

The chains behind the UniProt entries cited, without tags or fusion partners.
UniProt P21333: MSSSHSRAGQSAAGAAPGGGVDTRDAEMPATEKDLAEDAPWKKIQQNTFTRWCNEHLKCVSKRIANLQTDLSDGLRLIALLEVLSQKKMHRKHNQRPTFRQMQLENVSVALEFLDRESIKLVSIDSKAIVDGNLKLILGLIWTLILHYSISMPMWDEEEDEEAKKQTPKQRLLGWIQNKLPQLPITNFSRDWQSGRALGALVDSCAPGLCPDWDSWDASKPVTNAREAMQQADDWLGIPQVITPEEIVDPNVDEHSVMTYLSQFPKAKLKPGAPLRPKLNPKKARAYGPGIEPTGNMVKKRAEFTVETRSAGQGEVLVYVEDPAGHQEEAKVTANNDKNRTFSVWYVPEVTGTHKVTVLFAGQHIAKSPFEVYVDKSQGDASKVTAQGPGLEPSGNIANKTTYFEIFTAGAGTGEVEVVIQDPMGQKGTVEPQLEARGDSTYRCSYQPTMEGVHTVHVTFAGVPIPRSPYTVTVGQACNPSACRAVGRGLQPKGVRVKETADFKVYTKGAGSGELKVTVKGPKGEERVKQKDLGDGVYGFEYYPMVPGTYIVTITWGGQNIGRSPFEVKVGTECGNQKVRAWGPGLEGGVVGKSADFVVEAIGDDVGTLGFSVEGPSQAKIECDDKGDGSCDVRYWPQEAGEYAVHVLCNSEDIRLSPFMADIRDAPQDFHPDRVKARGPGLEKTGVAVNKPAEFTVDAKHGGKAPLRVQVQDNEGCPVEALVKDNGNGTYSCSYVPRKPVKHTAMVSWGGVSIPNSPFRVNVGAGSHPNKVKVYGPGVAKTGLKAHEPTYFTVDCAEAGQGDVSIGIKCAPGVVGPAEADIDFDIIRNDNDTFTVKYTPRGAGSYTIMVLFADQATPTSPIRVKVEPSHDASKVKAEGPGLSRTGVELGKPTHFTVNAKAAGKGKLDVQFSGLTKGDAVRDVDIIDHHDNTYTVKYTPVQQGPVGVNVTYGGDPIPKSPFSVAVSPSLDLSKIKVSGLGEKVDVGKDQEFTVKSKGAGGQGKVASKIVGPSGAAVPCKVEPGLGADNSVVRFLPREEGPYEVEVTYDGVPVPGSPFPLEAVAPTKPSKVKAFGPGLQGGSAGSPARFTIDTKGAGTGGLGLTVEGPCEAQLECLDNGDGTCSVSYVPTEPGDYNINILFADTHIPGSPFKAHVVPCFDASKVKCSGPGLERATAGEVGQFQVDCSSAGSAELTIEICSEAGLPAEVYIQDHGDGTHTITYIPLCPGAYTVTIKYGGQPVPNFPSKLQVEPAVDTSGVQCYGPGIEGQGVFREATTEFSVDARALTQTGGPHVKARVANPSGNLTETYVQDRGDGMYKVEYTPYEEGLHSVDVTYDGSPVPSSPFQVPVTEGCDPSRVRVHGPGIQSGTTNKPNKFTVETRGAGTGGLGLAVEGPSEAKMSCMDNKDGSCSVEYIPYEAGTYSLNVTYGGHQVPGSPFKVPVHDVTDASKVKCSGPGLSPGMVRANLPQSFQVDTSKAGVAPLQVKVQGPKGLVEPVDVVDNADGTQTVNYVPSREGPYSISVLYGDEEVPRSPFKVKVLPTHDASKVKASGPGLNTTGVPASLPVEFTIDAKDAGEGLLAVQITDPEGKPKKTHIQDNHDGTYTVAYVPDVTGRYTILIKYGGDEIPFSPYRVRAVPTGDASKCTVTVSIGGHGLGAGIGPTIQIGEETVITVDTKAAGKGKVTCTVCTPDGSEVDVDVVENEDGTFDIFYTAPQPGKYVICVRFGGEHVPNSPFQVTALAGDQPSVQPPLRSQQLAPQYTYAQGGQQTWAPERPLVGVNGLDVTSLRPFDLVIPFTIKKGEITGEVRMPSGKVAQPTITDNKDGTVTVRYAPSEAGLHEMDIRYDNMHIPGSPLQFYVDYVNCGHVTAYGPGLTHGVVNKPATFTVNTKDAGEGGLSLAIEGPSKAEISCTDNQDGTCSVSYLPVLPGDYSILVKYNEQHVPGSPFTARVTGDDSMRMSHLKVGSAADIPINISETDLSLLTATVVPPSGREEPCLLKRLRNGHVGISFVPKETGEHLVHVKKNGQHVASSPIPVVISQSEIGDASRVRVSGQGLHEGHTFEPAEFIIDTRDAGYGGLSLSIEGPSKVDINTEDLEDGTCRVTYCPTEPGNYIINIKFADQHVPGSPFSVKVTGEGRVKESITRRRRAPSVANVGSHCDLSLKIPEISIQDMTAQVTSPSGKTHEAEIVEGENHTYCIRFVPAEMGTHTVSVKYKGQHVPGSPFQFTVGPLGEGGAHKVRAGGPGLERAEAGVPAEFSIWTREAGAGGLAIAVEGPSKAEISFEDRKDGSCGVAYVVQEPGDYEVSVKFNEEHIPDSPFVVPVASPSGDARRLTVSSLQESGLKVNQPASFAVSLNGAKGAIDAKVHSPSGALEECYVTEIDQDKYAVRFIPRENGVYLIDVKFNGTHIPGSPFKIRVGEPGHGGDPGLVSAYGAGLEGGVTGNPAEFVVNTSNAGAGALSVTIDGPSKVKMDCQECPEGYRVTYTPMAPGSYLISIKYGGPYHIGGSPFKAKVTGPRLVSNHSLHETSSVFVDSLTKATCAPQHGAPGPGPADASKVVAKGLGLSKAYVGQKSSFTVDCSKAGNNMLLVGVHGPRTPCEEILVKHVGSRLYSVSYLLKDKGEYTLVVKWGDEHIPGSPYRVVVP

Target: His-tagged wild type FLNa (UniProt P21333)
Assay: co-IP; M2 cells co-transfected, lysed 48 h post transfection, immunoprecipitated with anti-His conjugated IgG beads or IgG beads alone, immunoblotted with anti-R-Ras antibody

B1: active R-Ras G38V (protein, UniProt P10301 1-218)
chain: MSSGAASGTGRGRPRGGGPGPGDPPPSETHKLVVVGGVGVGKSALTIQFIQSYFVSDYDPTIEDSYTKICSVDGIPARLDILDTAGQEEFGAMREQYMRAGHGFLLVFAINDRQSFNEVGKLFTQILRVKDRDDFPVVLVGNKADLESQRQVPRSEASAFGASHHVAYFEASAKLRLNVDEAFEQLVRAVRKYQEQELPPSPPSAPRKKGGGCPCVLL
binding: binds
